# The other results are listed elsewhere or left out. These are further read-outs of the screen, such as a control signal, another cell line or another target. No call is given for them. Most of these compounds were active or inconclusive in the main read-out, so they are no random draw. Potencies come from curve fits of mixed quality, noted in brackets.
# Experiment: qHTS Assay to Find Inhibitors of Chronic Active B-Cell Receptor Signaling
# Settings: ABC-DLBCL IkBa-CBG/CBR reporter, luminescence ratio (green luciferase fused to IkBa over red control in TMD8 lymphoma cells), 4 h
# Procedure, shortened: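 Concentration-response series (up to 46 uM) were applied to TMD8 dual-reporter cells for 4 h at 37C with doxycycline. Green/red ratio, after filter-overlap correction, defined %Activity; red signal alone was normalised to basal cells and zero luminescence.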
# [1] = measured here: CBR red luminescence, cell number
# [2] = measured here: IkBa-CBG green luminescence
SMILES,AC50 [1],AC50 [2]
CCN1CCN(c2ccc(S(=O)(=O)N3CCCCC3)cc2NC(=O)Cc2ccc(Cl)c(Cl)c2)CC1,"29.1 µM [falling, single point]",
NS(=O)(=O)c1ccc(CCNC(=O)C(=O)C2C(=O)Nc3ccccc32)cc1 (stereo not given),"35.5 µM [falling, single point]",
CCc1ccc(/C=C2\SC(=S)N(CCCC(=O)Nc3ccccc3C(=O)O)C2=O)cc1,"7.08 µM [falling, partial curve, poor fit]",
COCCn1ccc2c(OCC(=O)Nc3ccccc3OC)cccc2c1=O,"1.64 µM [falling, partial curve]",
COc1cccc(-c2nnn(CC(C)=O)n2)c1,"23.1 µM [rising, single point]",
COc1ccccc1-c1nnc(C2CCN(S(=O)(=O)c3ccccc3[N+](=O)[O-])CC2)o1,"0.355 µM [falling, full curve]",
Cc1nn(Cc2ccc(Cl)cc2)c(C)c1NC(=O)c1ccc([N+](=O)[O-])cc1,"32.6 µM [falling, partial curve, poor fit]",
O=C1CS/C(=C/C(=O)c2cccc(Cl)c2)N1,"35.5 µM [falling, single point]",
O=C(Cc1csc(-c2ccc(F)cc2)n1)Nc1cccc(S(=O)(=O)NC2=NCCC2)c1,"10.3 µM [falling, partial curve]",
CC(=O)Oc1ccc(-c2cccc(C(=O)Oc3ccccc3)c2)cc1,"0.00411 µM [rising, full curve, poor fit]",
CCOC(=O)c1c(NC(=O)CN2C(=O)NC3(CCCC3)C2=O)sc(C)c1CC,"32.6 µM [falling, single point]",
N#Cc1ccc(-c2cccs2)nc1SCc1cccnc1,"12.6 µM [rising, partial curve]","11.2 µM [falling, partial curve]"
CCS(=O)(=O)n1nc(-c2ccc(OC)cc2)nc1N,"3.16 µM [rising, full curve]",
CC(=O)N/C(=C/c1ccccc1)c1ccccc1,"16.4 µM [rising, partial curve, poor fit]",
Cc1oc(-c2ccc(Cl)cc2)nc1CN1CCC(C(=O)NCCCN2CCCC(C)C2)CC1 (stereo not given),"14.1 µM [falling, partial curve, poor fit]",
CCOc1cc(/C=N/NC(=O)c2nn(C)cc2Br)ccc1OCc1ccccc1,"5.17 µM [falling, partial curve, poor fit]",
COc1ccc(C(C(=O)NCc2ccccc2)N(C(=O)c2snc(C(N)=O)c2N)C2CCCC2)cc1O (stereo not given),,"11.2 µM [falling, partial curve, poor fit]"
O=C(O)COc1ccc(/C=N/NC(=O)C2CCCN2S(=O)(=O)c2ccc(Cl)cc2)cc1 (stereo not given),"29.1 µM [falling, single point]",
CCn1cc(C(=O)NCCc2ccccc2)c(=O)c2cc(S(=O)(=O)N(C)C)ccc21,"0.562 µM [rising, full curve, poor fit]",

# As a short view, 2 of the compounds above:
SMILES,AC50 [1],AC50 [2]
CCc1ccc(/C=C2\SC(=S)N(CCCC(=O)Nc3ccccc3C(=O)O)C2=O)cc1,"7.08 µM [falling, partial curve, poor fit]",
COCCn1ccc2c(OCC(=O)Nc3ccccc3OC)cccc2c1=O,"1.64 µM [falling, partial curve]",

# More records follow.

SMILES,AC50 [1],AC50 [2]
CCOc1ccc(NC(=O)CC2C(=O)N(c3ccc(OC)cc3)C(=O)N2CCc2ccc(OC)c(OC)c2)cc1 (stereo not given),"3.98 µM [rising, partial curve, poor fit]",
COc1ccc(NC(=O)c2ccc3c(c2)n(C)c(=O)n3C)cc1,"23.1 µM [rising, single point]","18.4 µM [falling, single point]"
CC(=O)OCCCN1C(=O)c2cccc3cc(Br)cc(c23)C1=O,"35.5 µM [rising, partial curve, poor fit]",
CCOC(=O)CN(C(=O)CSc1nnc2c(n1)[nH]c1ccc(F)cc12)c1ccccc1,"3.16 µM [falling, full curve, poor fit]",
COC(=O)CSc1nnc2c3c4c(sc3nc(-n3nc(C)cc3C)n12)COC(C)(C)C4,"3.55 µM [rising, single point]",
COC(=O)c1ccc(NC(=O)C(=O)c2c[nH]c3ccccc23)cc1,"0.1 µM [falling, full curve, poor fit]",
CC(NC(=O)c1ccccc1F)c1nnc(SCc2nc3ccccc3c(=O)[nH]2)n1C (stereo not given),"7.94 µM [falling, partial curve, poor fit]",
Cc1cc(C)cc(NC(=O)CN(c2ccc(F)cc2)S(C)(=O)=O)c1,"11.2 µM [falling, partial curve, poor fit]",
O=C(CSc1nnc2ccccn12)Nc1ccccc1C(=O)NC1CC1,"6.31 µM [falling, single point]",
Cc1ccc(-c2nc3cnccn3c2Nc2ccc3c(c2)OCCO3)o1,"6.51 µM [rising, single point]",
CCOC(=O)c1sc2nc3c(SCCC(=O)O)cc(C(=O)c4cc(OC)ccc4O)cn3c(=O)c2c1C,"5.62 µM [rising, partial curve, poor fit]",
CCN1CCN(CC(=O)N2N=C(c3cccs3)CC2c2ccc(C)cc2)C(=O)C1=O (stereo not given),"8.91 µM [rising, partial curve]",
CC(C)(C)c1ccc(C(=O)NN2C(=O)CSC2=S)cc1,"35.5 µM [rising, single point]",
Cc1ccc(OCCC(=O)OCC(=O)N2CCN(S(=O)(=O)c3ccc(Cl)cc3)CC2)cc1,"7.31 µM [falling, partial curve, poor fit]",
O=C(Nc1ccccc1)Nc1csc2ccccc12,"17.8 µM [falling, single point]",
C=CCn1c(SCC(=O)Nc2sccc2C(N)=O)nc2ccccc2c1=O,"4.11 µM [falling, partial curve, poor fit]",
COc1ccc(CC(=O)NNS(=O)(=O)c2ccccc2[N+](=O)[O-])cc1,"11.2 µM [rising, partial curve, poor fit]",
O=C(NCc1ccccc1F)C1CCCN(C(=O)NC2CCCCC2)C1 (stereo not given),"14.1 µM [falling, partial curve]",
O=[N+]([O-])c1ccc(Cl)c(-c2ccc(/C=N/c3c(-c4ccco4)nc4ccccn34)o2)c1,"31.6 µM [rising, single point]",

# — PubChem BioAssay AID493014 (National Center for Advancing Translational Sciences (NCATS), 2011)
